From article PMC10897291 come the findings set out here.

Amino acid sequences for entries named in this document (tags omitted).
UniProt O80982: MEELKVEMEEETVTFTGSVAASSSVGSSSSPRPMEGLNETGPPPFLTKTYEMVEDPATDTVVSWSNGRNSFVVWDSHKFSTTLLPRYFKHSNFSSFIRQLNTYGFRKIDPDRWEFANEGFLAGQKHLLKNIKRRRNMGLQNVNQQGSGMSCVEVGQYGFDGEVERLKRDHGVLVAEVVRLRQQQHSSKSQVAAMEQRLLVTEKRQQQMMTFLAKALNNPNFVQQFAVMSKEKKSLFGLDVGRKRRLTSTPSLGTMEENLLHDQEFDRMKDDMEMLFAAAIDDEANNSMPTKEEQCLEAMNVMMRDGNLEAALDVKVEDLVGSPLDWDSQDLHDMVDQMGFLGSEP

Assay [1] concerns the target T1, HALO-CDK8 (Arabidopsis thaliana) (UniProt Q84TI6).
T1 sequence: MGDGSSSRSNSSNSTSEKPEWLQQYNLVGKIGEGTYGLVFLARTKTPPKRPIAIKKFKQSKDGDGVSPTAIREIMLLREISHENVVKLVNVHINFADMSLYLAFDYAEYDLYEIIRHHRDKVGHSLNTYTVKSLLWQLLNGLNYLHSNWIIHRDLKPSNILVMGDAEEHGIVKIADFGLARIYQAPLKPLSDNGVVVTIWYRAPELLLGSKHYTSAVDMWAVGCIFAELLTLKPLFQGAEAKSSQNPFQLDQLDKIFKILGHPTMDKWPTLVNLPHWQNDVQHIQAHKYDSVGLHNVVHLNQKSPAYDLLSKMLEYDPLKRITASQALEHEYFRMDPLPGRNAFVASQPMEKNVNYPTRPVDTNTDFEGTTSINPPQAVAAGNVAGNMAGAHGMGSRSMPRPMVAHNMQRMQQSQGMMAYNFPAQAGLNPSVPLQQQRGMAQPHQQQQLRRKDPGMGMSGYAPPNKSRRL
Briefly: pull-down; FLAG-tagged HSFA and HALO-tagged CDK8 co-translated in wheat germ extract; captured with MagneHalo beads; immunoblot against FLAG and HALO. A general note: In western blotting, separated proteins are transferred to a membrane and probed.

The target in assay [2] is T2, C-RLuc-CDK8 fusion protein (CYCLIN-… KINASE 8) (Arabidopsis thaliana) (UniProt Q84TI6).
T2 sequence: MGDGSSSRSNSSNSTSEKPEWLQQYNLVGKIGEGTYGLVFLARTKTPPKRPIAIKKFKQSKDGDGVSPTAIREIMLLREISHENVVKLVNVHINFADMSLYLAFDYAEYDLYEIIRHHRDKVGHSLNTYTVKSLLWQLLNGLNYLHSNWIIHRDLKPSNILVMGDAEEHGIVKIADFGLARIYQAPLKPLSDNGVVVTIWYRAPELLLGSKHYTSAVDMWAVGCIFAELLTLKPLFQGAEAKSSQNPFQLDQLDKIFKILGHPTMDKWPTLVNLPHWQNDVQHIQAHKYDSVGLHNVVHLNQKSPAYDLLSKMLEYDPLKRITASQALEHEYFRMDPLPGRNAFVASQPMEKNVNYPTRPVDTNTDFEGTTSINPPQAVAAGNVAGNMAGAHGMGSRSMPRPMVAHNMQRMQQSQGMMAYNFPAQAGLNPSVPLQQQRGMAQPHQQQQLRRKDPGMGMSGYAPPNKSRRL
The assay can be described thus: split reporter; split Renilla luciferase complementation in transiently transformed Nicotiana benthamiana leaves; expression induced with 100 uM beta-estradiol for 24 h; 10 uM ViviRen substrate, bioluminescence detected for 30 min.

In assay [3] the target is FLAG-HSFA2 (transgenic A. thaliana) (Arabidopsis thaliana) (UniProt O80982). Briefly: co-IP; as the co-IP from CDK8-MYC FLAG-HSFA2 A. thaliana seedlings, but sampled 28 h after the end of the ACC heat treatment; anti-FLAG beads; immunoblot against MYC and FLAG.
Assay [4] has the same target. Briefly: co-IP; total protein extracts of CDK8-MYC FLAG-HSFA2 A. thaliana seedlings sampled 0 to 4 h after the end of an ACC heat treatment; anti-FLAG (DYKDDDDK) paramagnetic beads, 50 mM Tris-HCl pH 7.5, 50 mM NaCl, Triton X-100; immunoblot against MYC and FLAG.

No constants are given. Whether binding was seen depends on the method and setting. In cells and extracts the contact can be indirect. Some results given as binding are weak or reduced against the parent protein; the word gives no strength. For some of these results: Tags and fused reporters may be left off the sequences shown.

As to “FLAG-HSFA3 (in vitro translated) (from UniProt Q8GYY1 1-412)”, the binding result in assay [1] is given as “binds”.

“N-RLuc-HSFA3 (HEAT SHOCK …ON FACTOR A3) (from UniProt Q8GYY1 1-412)”: in assay [2], the binding result is given as “binds”.

B1: CDK8-MYC (enzyme, UniProt Q84TI6 1-470)
chain: MGDGSSSRSNSSNSTSEKPEWLQQYNLVGKIGEGTYGLVFLARTKTPPKRPIAIKKFKQSKDGDGVSPTAIREIMLLREISHENVVKLVNVHINFADMSLYLAFDYAEYDLYEIIRHHRDKVGHSLNTYTVKSLLWQLLNGLNYLHSNWIIHRDLKPSNILVMGDAEEHGIVKIADFGLARIYQAPLKPLSDNGVVVTIWYRAPELLLGSKHYTSAVDMWAVGCIFAELLTLKPLFQGAEAKSSQNPFQLDQLDKIFKILGHPTMDKWPTLVNLPHWQNDVQHIQAHKYDSVGLHNVVHLNQKSPAYDLLSKMLEYDPLKRITASQALEHEYFRMDPLPGRNAFVASQPMEKNVNYPTRPVDTNTDFEGTTSINPPQAVAAGNVAGNMAGAHGMGSRSMPRPMVAHNMQRMQQSQGMMAYNFPAQAGLNPSVPLQQQRGMAQPHQQQQLRRKDPGMGMSGYAPPNKSRRL
Consider B1, for which the binding result in assay [3] is recorded as “no binding (condition: 28 h after ACC)”; in assay [4] it was “binds”.
